# Assay results: the supplement of paper PMC4604168 (melanoma cell lines)
# The other results are listed elsewhere or left out. Many values rest on one well or one pass, so single values are uncertain.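 Cells were imaged in 1,536-well plates, and nuclei stained with an antibody against cleaved PARP were counted against all DNA-stained nuclei to give the apoptosis fraction. Screening doses were chosen to leave most cells alive, and resting and induced cleaved-PARP levels differ strongly between cell lines.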
# Test system: CBRC008 (line from a melanoma biopsy)
# Assay: cleaved PARP positive nuclei fraction relative to DMSO control; melanoma cells; higher = more apoptosis
# Conditions: library dose: low library concentration; 72 h
row,Structure (SMILES),cleaved PARP positive nuclei fraction [%]
1,"CCCCCCCCCCCCCCCCCCOP(=O)([O-])OC1CC[N+](C)(C)CC1 [Perifosine] + C[As](C)SC[C@H](NC(=O)CC[C@H](N)C(=O)O)C(=O)NCC(=O)O [Darinaparsin] (first compound 0.4 µM, partner dose 0.4 µM)",50.2
2,"CC(=O)O[C@@]12CO[C@@H]1C[C@H](O)[C@@]1(C)C(=O)[C@H](O)C3=C(C)[C@@H](OC(=O)[C@H](O)[C@@H](NC(=O)OC(C)(C)C)c4ccccc4)C[C@@](O)([C@@H](OC(=O)c4ccccc4)[C@H]21)C3(C)C [Docetaxel] + N.N.[Cl][Pt][Cl] [cisplatin] (first compound 0.0001 µM, partner dose 1.6 µM)",486
3,"N.N.[Cl][Pt][Cl] [cisplatin] + C#Cc1cccc(Nc2ncnc3cc(OCCOC)c(OCCOC)cc23)c1 [erlotinib] (first compound 1.6 µM, partner dose 0.8 µM)",185
4,"C[As](C)SC[C@H](NC(=O)CC[C@H](N)C(=O)O)C(=O)NCC(=O)O [Darinaparsin] + Cc1nc(Nc2ncc(C(=O)Nc3c(C)cccc3Cl)s2)cc(N2CCN(CCO)CC2)n1 [dasatanib] (first compound 0.4 µM, partner dose 0.004 µM)",106
5,"Cn1sc(=O)n(Cc2ccccc2)c1=O + C[As](C)SC[C@H](NC(=O)CC[C@H](N)C(=O)O)C(=O)NCC(=O)O [Darinaparsin] (first compound 0.4 µM, partner dose 0.4 µM)",115
